Source: patent publication US20250002575A1 (Genentech, published 2025)
Results are given in words; binding and its absence hold for the method and conditions named. Some entries that bind do so weakly or less than the wild type.

Target: T1, endogenous reduced human IL-33 in human samples (vitreous humor, serum) (human) (UniProt O95760)
T1 sequence (looked up): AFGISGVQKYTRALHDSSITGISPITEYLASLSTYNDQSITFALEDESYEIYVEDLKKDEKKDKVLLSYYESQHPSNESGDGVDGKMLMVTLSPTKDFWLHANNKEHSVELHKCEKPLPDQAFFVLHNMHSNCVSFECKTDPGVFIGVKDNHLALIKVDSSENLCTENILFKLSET
Assay: immunodepletion of diluted human vitreous humor with antibody-conjugated beads; remaining reduced hIL-33 measured by iPCR

B1: rat IgG2a anti-human IL-33 clone 15.21C7 (antibody, V domains shown)
VH: EVQLVESGGGLVQPGTSLKLSCVASGFTFSDFWMSWVRQTPGKTMEWIADIKNDGSHTKYAPSLQNRFTISRDNAKNTLYLEVTDVRSEDTATYYCTRVGGTYTAYYWGHGVMVTVSS
VL: DIQMTQTPSSMPASLGERVTLSCRTSQGINTYLNWYQQKPDGTITPLIHYTSNLESGVPSRFSGSGFGTDYFLTISSLEPEDFAMYFCQQYASSPWTFGGGTKLELKK
notes: also called rat anti-reduced hIL-33 15.21C7 IgG2a
  binding: binds
